The series relates to normale menschliche Melanocyten. The series is described as follows: Melanin assay (melanin content of human melanocyte cultures, optical density at 405 nm). It is filed as cell-based. The settings on record: 240 h incubation. The text has this:
Das Potential der Verbindungen nach Formeln Ia bis IIp als Hautaufheller-Wirkstoff wurde außerdem durch den Melanin-Versuch verifiziert. Der Effekt in Bezug auf den Melanin-Gehalt von menschlichen epidermalen Melanocyten-Kulturen dieser Verbindungen wurde ermittelt und mit der Referenzverbindung (Kojicsäure) verglichen.
Eine vorausgehende Cytotoxizitäts-Studie der Verbindungen nach Formeln Ia bis IIp wurde durchgeführt um drei nicht-cytotoxische Konzentrationen für den Melanin-Versuch zu ermitteln.
Melanin-Versuch: normale menschliche Melanocyten wurden in 24 Lochplatten (110.000 Zellen/Loch) kultiviert. Bei 50 % Zusammenfluss wurde das Kulturmedium mit oder ohne (Kontrollverbindung) Verbindungen der Formeln Ia bis IIp durch frisches Kulturmedium in drei verschiedenen Konzentrationen ersetzt.
Nach der Inkubation (240 Stunden) wurden die Monolayers gewaschen, die Zellen lysiert und das Melanin extrahiert. Es wurde die optische Dichte jedes experimentellen Punktes bei 405 nm gegen den Melanin-Standard gemessen. Tabelle 2 zeigt die Ergebnisse zwei ausgewählter Verbindungen im Vergleich zur Kojicsäure und der Kontrollverbindung (mit 100% Melaningehalt), wobei der ermittelte Melaningehalt (in %) bei jeweils drei verschiedenen Konzentrationen angegeben ist. Tab. 2 Melanin-Versuchsergebnisse

Turning to `Oc1cccc(CN2CCN(Cc3ccccc3)CC2)c1O` [Ia, 3-(4-Benzyl-piperazin-1-ylmethyl)-benzen-1,2-diol], where the note is “Konzent. 0.8 µg/mL”, the Proteine was found to be 0.504 mg/mL.

Turning to `Oc1ccc(CN2CCN(Cc3ccccc3)CC2)c(O)c1` [Ib, 4-(4-Benzyl-piperazin-1-ylmethyl)-benzen-1,3-diol], the Proteine reads like this: (Konzent. 0.8 µg/mL) 0.486 mg/mL; (Konzent. 4 µg/mL) 0.508 mg/mL.

On to `CCN1CCN(Cc2ccc(O)cc2O)CC1` [Ie, 4-(4-Ethyl-piperazin-1-ylmethyl)-benzen-1,3-diol], for which the Proteine reads like this: (Konzent. 0.8 µg/mL) 0.488 mg/mL; (Konzent. 4 µg/mL) 0.497 mg/mL; (Konzent. 20 µg/mL) 0.490 mg/mL.

For the compound `Oc1ccc(CN2CCOCC2)c(O)c1` [Ih, 4-Morpholin-1-ylmethyl-benzen-1,3-diol], the Proteine runs as follows: (Konzent. 1.6 µg/mL) 0.48 mg/mL; (Konzent. 8 µg/mL) 0.525 mg/mL; (Konzent. 40 µg/mL) 0.48 mg/mL.

`O=c1cc(CO)occ1O` [Kojicsäure, reference compound]: the Proteine is recorded as 0.450 mg/mL (Konzent. 6.8 µg/mL), 0.431 mg/mL (Konzent. 15.6 µg/mL) and 0.358 mg/mL (Konzent. 36 µg/mL).
